{"source": "PubChem BioAssay AID588518", "about": "(NMMLSC, 2011)", "note": "The whole screen tested about 1,700 compounds, of which about 20 (1%) were called active. Rule as the data show it: active = inhibition above about 26%; inactive = the rest. This list holds what a sample rich in actives left over."}
{"tested_on": "Candida albicans multidrug efflux pump MDR1 (expressed in S. cerevisiae AD1-8u)", "experiment": "inhibitors of Candida albicans Mdr1 efflux, confirmation, flow cytometry, singleplex, Cherry Pick1 set (AID 588518);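 also: 0% = DMSO vehicle and 100% = reference inhibitor; higher means more Nile Red retained so more efflux inhibition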", "conditions": "S. cerevisiae AD/CaMDR1, Nile Red efflux, at 10 µM, hits give high values"}
{"smiles": "CCN(CC)c1ccc([N+](=O)[O-])c2cccnc12", "inhibition": "inactive: -0.01%"}
{"smiles": "O=[N+]([O-])c1cnc2ccc3ccccc3c2c1", "inhibition": "inactive: -0.03%"}
